Measurements reported in PubChem BioAssay AID686938 (Drosophila RNAi Screening Center, 2013)
The screen tested about 23,000 reagents; shown is an unselected part of those with a known target gene and a result. In the full data, 75 (0.33%) were called active. 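Raw plate signals without normalisation; calls rest on plate z-scores that were not deposited; ratio present for only 364 wells.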 Reagents against one gene are numbered here. Reagent sequences are not shown. Not stated in the record: the dose of the treatment.

Screen: 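Looking for CRAC channel components and the factors controlling them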 (primary screen)
Cells: Drosophila S2R+ cells
Reagent: long dsRNA against Drosophila genes, about 0.25 µg dsRNA per well, roughly 10,000 cells
Duration: 5 days of knock-down before the calcium assay
Treatment: thapsigargin (SERCA pump blocker) to empty calcium stores; entry signal taken 4 min after adding it
Measured: 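Per-well fluo-4 fluorescence in two replicates, unnormalised, measured in resting cells and 4 min after store depletion by the SERCA blocker thapsigargin; ratio of the two present in few wells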
Reading the numbers: calcium entry signal: higher = stronger calcium signal after store depletion; entry to resting ratio: higher = more calcium entry relative to resting level; resting calcium signal: higher = higher resting calcium signal
Call rule: 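Called when the plate z-score of the entry-to-rest ratio, mean of duplicates, falls below −3; wells with low overall dye signal (Fmax z below −2) or more than five off-targets excluded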
Calls: active = strongly reduced calcium entry; inactive = no strong reduction

| gene | reagent no. | calcium entry signal, replicate 1 (fluorescence units) | calcium entry signal, replicate 2 (fluorescence units) | entry to resting ratio | resting calcium signal, replicate 1 (fluorescence units) | resting calcium signal, replicate 2 (fluorescence units) | Call |
| --- | --- | --- | --- | --- | --- | --- | --- |
| mus101 | 1 | 4.62e7 | 2.79e7 | – | 2.16e7 | 1.52e7 | inactive |
| CG34398 | 1 | 6.16e7 | 2.83e7 | – | 2.85e7 | 1.47e7 | inactive |
| CG34398 | 2 | 1.87e7 | 2.65e7 | – | 9.03e6 | 1.28e7 | inactive |
| CG34398 | 3 | 5.29e7 | – | – | 2.44e7 | – | inactive |
| CG34398 | 4 | 2.18e7 | 2.95e7 | – | 1.04e7 | 1.32e7 | inactive |
| CG34398 | 5 | 3.94e7 | 2.53e7 | – | 1.82e7 | 1.26e7 | inactive |
| CG3746 | 1 | 3.33e7 | 4.43e7 | – | 1.76e7 | 1.87e7 | inactive |
| CG34183 | 1 | 2.96e7 | 3.80e7 | – | 1.55e7 | 1.55e7 | inactive |
| Ugt49B1 | 1 | 2.65e7 | 4.51e7 | – | 1.47e7 | 1.91e7 | inactive |
| CG14712 | 1 | 2.93e7 | 3.53e7 | – | 1.46e7 | 1.77e7 | inactive |
| Pka-C3 | 1 | 3.34e7 | 3.63e7 | – | 1.56e7 | 1.85e7 | inactive |
| Pka-C3 | 2 | 3.57e7 | 5.93e7 | – | 1.51e7 | 1.84e7 | inactive |
| shot | 1 | 5.31e7 | 4.33e7 | – | 2.64e7 | 2.14e7 | inactive |
| shot | 2 | 4.35e7 | 5.54e7 | – | 2.39e7 | 2.47e7 | inactive |
| shot | 3 | 3.31e7 | 3.08e7 | – | 1.41e7 | 1.50e7 | inactive |
| CG3527 | 1 | 2.63e7 | 3.10e7 | – | 1.52e7 | 1.71e7 | inactive |
| CG13359 | 1 | 3.59e7 | 4.26e7 | 2 | 1.76e7 | 1.76e7 | inactive |
| CG11345 | 1 | 1.77e7 | 3.05e7 | – | 8.08e6 | 1.24e7 | inactive |
| baf | 1 | 4.27e7 | 5.61e7 | – | 1.99e7 | 2.52e7 | inactive |
| Hs3st-A | 1 | 4.30e7 | 3.62e7 | – | 2.31e7 | 1.93e7 | inactive |
| Hs3st-A | 2 | 5.59e7 | 5.98e7 | – | 2.62e7 | 2.70e7 | inactive |
| Hs3st-A | 3 | 4.69e7 | 4.78e7 | – | 2.10e7 | 2.34e7 | inactive |
| CG34300 | 1 | 3.91e7 | 3.37e7 | – | 1.76e7 | 1.72e7 | inactive |
| Cht9 | 1 | 3.93e7 | – | – | 1.93e7 | – | inactive |
| CG30427 | 1 | 2.34e7 | 4.04e7 | – | 1.18e7 | 1.72e7 | inactive |
| CG30427 | 2 | 2.43e7 | – | – | 1.31e7 | – | inactive |
| CG30427 | 3 | 4.66e7 | 5.00e7 | – | 2.28e7 | 2.50e7 | inactive |
| CG33258 | 1 | 3.71e7 | 4.69e7 | – | 1.66e7 | 2.44e7 | inactive |
| twz | 1 | 4.17e7 | 4.18e7 | – | 1.91e7 | 1.76e7 | inactive |
| mRF1 | 1 | 4.62e7 | – | – | 2.42e7 | – | inactive |
| CG13016 | 1 | 3.58e7 | 3.35e7 | – | 1.92e7 | 1.57e7 | inactive |
| CG10352 | 1 | 2.99e7 | 3.62e7 | – | 1.57e7 | 1.64e7 | inactive |
| CG32085 | 1 | 1.93e7 | 2.23e7 | – | 1.12e7 | 1.10e7 | inactive |
| CG32085 | 2 | 2.28e7 | 2.15e7 | – | 1.22e7 | 1.09e7 | inactive |
| CG32085 | 3 | 1.83e7 | 1.88e7 | – | 1.11e7 | 1.03e7 | inactive |
| CG42827 | 1 | 3.45e7 | 4.74e7 | – | 1.83e7 | 2.28e7 | inactive |

Part of the list above in another layout.
CG14712 | calcium entry signal, replicate 1 (fluorescence units): 2.93e7; calcium entry signal, replicate 2 (fluorescence units): 3.53e7; resting calcium signal, replicate 1 (fluorescence units): 1.46e7; resting calcium signal, replicate 2 (fluorescence units): 1.77e7; Call: inactive
Pka-C3 #1 | calcium entry signal, replicate 1 (fluorescence units): 3.34e7; calcium entry signal, replicate 2 (fluorescence units): 3.63e7; resting calcium signal, replicate 1 (fluorescence units): 1.56e7; resting calcium signal, replicate 2 (fluorescence units): 1.85e7; Call: inactive
Pka-C3 #2 | calcium entry signal, replicate 1 (fluorescence units): 3.57e7; calcium entry signal, replicate 2 (fluorescence units): 5.93e7; resting calcium signal, replicate 1 (fluorescence units): 1.51e7; resting calcium signal, replicate 2 (fluorescence units): 1.84e7; Call: inactive
shot #1 | calcium entry signal, replicate 1 (fluorescence units): 5.31e7; calcium entry signal, replicate 2 (fluorescence units): 4.33e7; resting calcium signal, replicate 1 (fluorescence units): 2.64e7; resting calcium signal, replicate 2 (fluorescence units): 2.14e7; Call: inactive
shot #2 | calcium entry signal, replicate 1 (fluorescence units): 4.35e7; calcium entry signal, replicate 2 (fluorescence units): 5.54e7; resting calcium signal, replicate 1 (fluorescence units): 2.39e7; resting calcium signal, replicate 2 (fluorescence units): 2.47e7; Call: inactive
shot #3 | calcium entry signal, replicate 1 (fluorescence units): 3.31e7; calcium entry signal, replicate 2 (fluorescence units): 3.08e7; resting calcium signal, replicate 1 (fluorescence units): 1.41e7; resting calcium signal, replicate 2 (fluorescence units): 1.50e7; Call: inactive
CG3527 | calcium entry signal, replicate 1 (fluorescence units): 2.63e7; calcium entry signal, replicate 2 (fluorescence units): 3.10e7; resting calcium signal, replicate 1 (fluorescence units): 1.52e7; resting calcium signal, replicate 2 (fluorescence units): 1.71e7; Call: inactive

The results go on:
| gene | reagent no. | calcium entry signal, replicate 1 (fluorescence units) | calcium entry signal, replicate 2 (fluorescence units) | entry to resting ratio | resting calcium signal, replicate 1 (fluorescence units) | resting calcium signal, replicate 2 (fluorescence units) | Call |
| --- | --- | --- | --- | --- | --- | --- | --- |
| CycE | 1 | 3.06e7 | – | – | 1.96e7 | – | inactive |
| CycE | 2 | 3.52e7 | 2.31e7 | – | 1.98e7 | 1.31e7 | inactive |
| lgs | 1 | 2.84e7 | 4.13e7 | – | 1.42e7 | 1.93e7 | inactive |
| CG31816 | 1 | 2.34e7 | 3.33e7 | – | 1.26e7 | 1.45e7 | inactive |
| SdhB | 1 | 4.38e7 | 2.87e7 | – | 2.18e7 | 1.49e7 | inactive |
| SdhB | 2 | 3.49e7 | 3.06e7 | – | 1.71e7 | 1.45e7 | inactive |
| Cpr49Ag | 1 | 3.06e7 | 3.95e7 | – | 1.58e7 | 1.84e7 | inactive |
| fand | 1 | 2.09e7 | 1.61e7 | – | 1.24e7 | 9.26e6 | inactive |
| CG5861 | 1 | 5.06e7 | 4.07e7 | – | 2.21e7 | 1.75e7 | inactive |
| l(1)10Bb | 1 | 4.08e7 | 3.72e7 | – | 1.99e7 | 2.05e7 | inactive |
| Pp1alpha-96A | 1 | 3.73e7 | 4.14e7 | – | 2.08e7 | 1.82e7 | inactive |
| Pp1alpha-96A | 2 | 3.33e7 | 3.47e7 | – | 1.76e7 | 1.67e7 | inactive |
| CG6329 | 1 | 3.00e7 | 3.42e7 | – | 1.36e7 | 1.69e7 | inactive |
| Asap | 1 | 4.97e7 | 4.34e7 | – | 2.18e7 | 1.87e7 | inactive |
| Asap | 2 | 4.25e7 | 3.28e7 | – | 1.74e7 | 1.65e7 | inactive |
| CG31533 | 1 | 3.30e7 | 4.08e7 | – | 1.98e7 | 1.85e7 | inactive |
| CG14301 | 1 | 3.84e7 | 4.83e7 | – | 5.29e7 | 2.06e7 | inactive |
| CG30161 | 1 | 2.79e7 | 4.80e7 | – | 1.37e7 | 2.25e7 | inactive |
| Ccp84Ac | 1 | 4.42e7 | 3.71e7 | – | 2.28e7 | 1.72e7 | inactive |
| h-cup | 1 | 3.50e7 | 4.17e7 | – | 1.53e7 | 1.83e7 | inactive |
| Letm1 | 1 | 2.92e7 | – | – | 1.72e7 | – | inactive |
| viaf | 1 | 5.52e7 | 4.46e7 | – | 3.61e7 | 1.94e7 | inactive |
